In PubChem BioAssay AID445 (National Center for Advancing Translational Sciences (NCATS), 2006):
The list shows a part of the results. The main result of the screen is listed elsewhere. These columns were measured beside it and carry no call. Most of these compounds were active or inconclusive in the main read-out, so they are no random draw. Words in brackets tell the shape of the fitted curve; partial curves, single points and poor fits give uncertain potencies.

Experiment: IkB Signaling
Conditions: ABC-DLBCL IkBa-CBG/CBR dual luciferase ratio (green luciferase fused to IkBa over red control in OCI-Ly3 lymphoma cells), 4 h
Summary of the method: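 Curves were fitted separately to fusion (green), unfused (red) and ratio luminescence, then classed by r2, magnitude and activity. Cells: OCI-Ly3, 4 h compound plus doxycycline at 37C; 10 uM MG-132 defined full response.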

[1] = measured here: control luc red channel unless noted

Cc1noc(C)c1-c1ccc2ncnc(NC3CCNCC3)c2c1
AC50 [1]: 5.01 µM [rising, partial curve] [measured here: IkB-luc green channel]

NS(=O)(=O)c1ccc(N=Nc2cc3ccccc3c(C(=O)O)c2O)cc1
AC50 [1]: 2.51 µM [falling, partial curve]

Cc1cccc(Nc2ncnc3onc(-c4ccc(Cl)cc4)c23)c1C
AC50 [1]: 0.316 µM [rising, single point]

Cc1ccc(-c2nc3ccccc3[nH]2)s1
AC50 [1]: 12.6 µM [falling, partial curve]

COC(=O)c1ccc([C@@H]2Nc3c(OC)ccc(C)c3[C@@H]3C=CC[C@@H]32)cc1
AC50 [1]: 15.8 µM [falling, single point]

Cc1ccc(C(=O)OCC(=O)Nc2ccccc2)cc1NC(=O)c1ccco1
AC50 [1]: 3.98 µM [falling, partial curve]

COc1ccc(C(=O)Nc2cccc(C(=O)OCc3cc(=O)n4nc(C5CC5)sc4n3)c2)cc1
AC50 [1]: 3.98 µM [falling, partial curve]

Cc1nn(-c2ccccc2)c2[nH]c(C(F)(F)F)cc(=O)c12
AC50 [1]: 25.1 µM [falling, partial curve]

COc1cccc2c(=O)cc(C)n(CC(=O)Nc3ccc(C)c(C)c3)c12
AC50 [1]: 10 µM [falling, partial curve]

Cc1ccc2cc(C)c(N3CCN(c4ccccn4)CC3)nc2c1
AC50 [1]: 20 µM [falling, partial curve]

O=C(NCc1csc(-c2ccccc2)n1)c1ccco1
AC50 [1]: 15.8 µM [falling, partial curve]

CCOC(=O)c1ccc(NC(=O)c2cnn3c(=O)c4c(n(CC)c23)CCN(Cc2ccc(OC)cc2)C4)cc1
AC50 [1]: 20 µM [falling, partial curve]

CC1CCN(S(=O)(=O)N2CCC(C(=O)NCc3ccccc3Cl)CC2)CC1
AC50 [1]: 10 µM [falling, partial curve]

CC1=C(/C=C/C(C)=C/C=C/C(C)=C/CO)C(C)(C)CCC1
AC50 [1]: 79.4 nM [rising, full curve, poor fit] [measured here: IkB-luc green channel]

COC(=O)c1ccc(Nc2ncnc3c2cnn3C)cc1
AC50 [1]: 0.631 µM [rising, full curve]

COc1ccc(C2c3[nH]c4ccccc4c3CCN2C(=O)CCC2CCCC2)cc1 (stereo unspecified)
AC50 [1]: 1.58 µM [falling, partial curve]

Cc1ccsc1CCN1C(=O)N(c2ccccc2)C(=O)C1CC(=O)Nc1ccc(Cl)cc1 (stereo unspecified)
AC50 [1]: 39.8 µM [falling, single point]

COc1ccc(-c2nc3scc(CCNS(=O)(=O)c4ccc(Oc5ccccc5)cc4)n3n2)cc1OC
AC50 [1]: 2.51 µM [rising, full curve]

O=C(CNC(=O)c1ccccc1)OCc1cc(=O)n2nc(C3CCCCC3)sc2n1
AC50 [1]: 0.126 µM [rising, full curve]

CCN(CC)C(=O)c1sc2c(c1C)c(=O)n(Cc1ccccc1)c(=O)n2Cc1ccccc1C
AC50 [1]: 25.1 µM [falling, partial curve]

COC(=O)C1C(=O)C2=C(CC1C)NC(C)=C(C(=O)OCCOc1ccccc1)C2c1ccc(C)o1 (stereo unspecified)
AC50 [1]: 10 µM [falling, partial curve]

CC(=O)c1cccc(NC(=O)Nc2sc3nc4n(c(=O)c3c2C)CCC(C)CC4)c1 (stereo unspecified)
AC50 [1]: 1 µM [falling, single point]

COc1ccc(Cn2cc(S(=O)(=O)c3ccc(C)cc3)c(=O)c3cc(F)ccc32)cc1
AC50 [1]: 39.8 µM [falling, single point]

COc1ccc2c(CNCCc3ccc(SC)cc3)c(C(=O)O)n(Cc3ccc(F)cc3)c2c1
AC50 [1]: 25.1 µM [falling, partial curve]

Cc1cccc(CN2C(=O)c3ccccc3Sc3ccc(C(=O)NCc4ccco4)cc32)c1
AC50 [1]: 12.6 µM [falling, partial curve]

CCS(=O)(=O)c1ncc(Cl)c(C(=O)N2CCN(c3ccc(OC)cc3)CC2)n1
AC50 (measured here: IkB-luc green channel): 5.01 µM [rising, single point]
AC50 (measured here: control luc red channel): 7.94 µM [falling, full curve]

O=c1c2ccccc2nc(/C=C/c2cccc3ccccc23)n1-c1ccc(F)cc1F
AC50 [1]: 20 µM [falling, single point]

CCC(CC)C(=O)Nc1nnc(S(=O)(=O)N2CCCCCC2)s1
AC50 [1]: 2.51 µM [rising, full curve]

CCC(Sc1nc2c(sc3ccccc32)c(=O)n1CCc1ccc(OC)c(OC)c1)C(=O)N(CC)CC (stereo unspecified)
AC50 [1]: 10 µM [falling, partial curve]

CCOc1ccc(NC(=O)CSC2=Nc3ccccc3C3=NC(CC(=O)NCc4cccs4)C(=O)N23)cc1 (stereo unspecified)
AC50 [1]: 2 µM [falling, full curve, poor fit]

Cc1ccc(-c2cn3c(n2)sc2cc(C(=O)NCCCN4CCCCCC4)ccc23)cc1
AC50 [1]: 10 µM [falling, partial curve]

Cc1cccc(N2CCN(C(=O)Cn3sc4nc(C)cc(C)c4c3=O)CC2C)c1 (stereo unspecified)
AC50 [1]: 39.8 µM [falling, single point]

CC1=C(c2ccc(C)c(C)c2)S(=O)(=O)N=C1N1CCC(C(=O)NC(C)c2ccccc2)CC1 (stereo unspecified)
AC50 [1]: 39.8 µM [falling, single point]

CC(CCc1ccccc1)NC(=O)Cn1c(=O)nc(-c2ccccc2)c2cc(Cl)ccc21 (stereo unspecified)
AC50 [1]: 12.6 µM [falling, partial curve]

CCc1ccc2oc(C(=O)N(Cc3ccc(N(C)C)cc3)Cc3ccco3)c(C)c2c1
AC50 [1]: 31.6 µM [falling, single point]

O=C1c2ccccc2-c2onc3c(N4CCN(C5CCCCC5)CC4)cc(NCCO)c1c23
AC50 [1]: 25.1 µM [falling, partial curve]

COc1ccc(CNC(=O)Cc2c(C(=O)O)c(C)cn2C)cc1
AC50 [1]: 0.0126 µM [rising, full curve]

CSc1ccccc1N=Cc1nc(-c2ccccc2)oc1O
AC50 [1]: 10 µM [falling, partial curve]

O=C(COc1ccc(Cl)cc1Cl)NCc1ccco1
AC50 [1]: 0.794 µM [rising, full curve]

Cc1c(-c2ccccc2)c(=O)oc2ccc(OC(=O)N3CCOCC3)cc12
AC50 [1]: 5.01 µM [falling, single point]

Cc1cc(C)cc(OCCSc2nc3ccc(NC(=O)c4cccs4)cc3s2)c1
AC50 [1]: 25.1 µM [falling, partial curve]

CCOc1ccc(C(=O)Nc2c(C(=O)Nc3ccccc3OC)oc3ccccc23)cc1OCC
AC50 [1]: 3.16 µM [rising, single point]

O=C(Cn1cc(C(=O)C2CCCCC2)c2ccccc21)Nc1ccccc1Cl
AC50 [1]: 12.6 µM [falling, partial curve]

Nn1c(SCC(=O)NC2CCCCC2)nnc1-c1ccccc1
AC50 [1]: 25.1 µM [falling, partial curve]

COc1ccc(CCNC(=O)c2ccc3c(c2)sc2nc(-c4ccccc4)cn23)cc1OC
AC50 [1]: 20 µM [falling, single point]

CCOC(=O)c1cc(-c2ccc(OC)cc2)n(CCC(=O)NCCc2ccccc2)c1C
AC50 [1]: 39.8 µM [falling, partial curve]

COc1ccc(Cc2nnc3n2N=C(c2cc4ccccc4o2)CS3)cc1OC
AC50 [1]: 20 µM [falling, partial curve]

CCC(C)C(NC(=O)c1ccccc1NC(=O)c1ccc(OC)cc1)C(=O)NCc1ccco1 (stereo unspecified)
AC50 [1]: 10 µM [falling, partial curve]

Cc1cc(OCC(=O)NCCc2nc3ccccc3[nH]2)cc(C)c1Cl
AC50 [1]: 25.1 µM [falling, partial curve]

Cc1cccc(S(=O)(=O)Nc2nc3ccccc3nc2NCc2ccco2)c1
AC50 [1]: 10 µM [falling, partial curve]

Cc1ccc(CNC(=O)Cn2c(SCC(=O)Nc3ccc(F)cc3)nc3ccccc32)cc1
AC50 [1]: 39.8 µM [falling, single point]

COc1ccccc1Cc1nc(-c2ccc(Br)o2)no1
AC50 [1]: 7.94 µM [falling, partial curve]

Cc1ccc(CNC(=O)C(C)n2c(=O)cc(C(F)(F)F)c3c(C)nn(C)c32)cc1 (stereo unspecified)
AC50 [1]: 3.98 µM [falling, partial curve]

Cc1cccc(C(=O)N2CCc3cc(CNC(=O)c4cc5ccccc5[nH]4)ccc32)c1
AC50 [1]: 1.26 µM [rising, partial curve]

Cc1ccc(S(=O)(=O)C(CNC(=O)c2c(F)cccc2F)c2ccco2)cc1 (stereo unspecified)
AC50 [1]: 1.58 µM [rising, partial curve]

Cc1cc(C)c(S(=O)(=O)NCCS(=O)(=O)N2CCN(c3ccccc3)CC2)c(C)c1
AC50 [1]: 6.31 µM [falling, partial curve]

NC1=NC(c2cn(-c3ccccc3)nc2-c2cccs2)n2c(nc3ccccc32)N1 (stereo unspecified)
AC50 [1]: 15.8 µM [falling, partial curve]

COC(=O)c1ccccc1NC(=O)Cn1cnc2sc(C)c(S(=O)(=O)N3CCC(C)CC3)c2c1=O
AC50 [1]: 5.01 µM [falling, full curve]

COc1ccc(NC(=O)/C=C\C(=O)N(c2ccc(C(C)C)cc2)C(C(=O)NCc2ccco2)c2ccc(C)cc2)cc1 (stereo unspecified)
AC50 [1]: 25.1 µM [falling, partial curve]

CCOc1ccc(C2C(=O)N(C3CCCCCC3)CC(=O)N2Cc2ccccc2)cc1OC (stereo unspecified)
AC50 [1]: 3.98 µM [rising, single point]

CCOC(=O)c1cccc(NC(=O)c2ncoc2-c2ccco2)c1
AC50 [1]: 2 µM [rising, partial curve, poor fit]

CN1CCN(CCC=C2c3ccccc3Sc3ccc(S(=O)(=O)N(C)C)cc32)CC1
AC50 [1]: 15.8 µM [falling, partial curve] [measured here: IkB-luc green channel]

O=C(N1CCN(c2ccccc2F)CC1)C12CC3CC(CC(C3)C1)C2
AC50 [1]: 20 µM [falling, partial curve]

CCc1ccc(CNC(=O)CCCn2ccc3cc(S(=O)(=O)N4CCCC4)ccc32)cc1
AC50 [1]: 12.6 µM [falling, partial curve]

Cn1c(=O)c(C(=O)Nc2cnccn2)c(O)c2ccccc21
AC50 [1]: 39.8 µM [falling, single point]

CCOc1ccc(CCNC(=O)c2cc3c(-c4ccccc4F)nn(C)c3s2)cc1
AC50 [1]: 10 µM [falling, partial curve]

Cc1ccc(S(=O)(=O)c2nc(-c3ccc(F)cc3)oc2SCC(=O)NC2CCCCC2)cc1
AC50 [1]: 1.26 µM [falling, partial curve]

CCS(=O)(=O)N1CCc2cc(C(=O)NCc3ccccc3OC)ccc21
AC50 [1]: 31.6 µM [falling, single point]

COc1cccc(NC(=O)C2CCC(CNS(=O)(=O)c3ccc4c(c3)CCCC(=O)N4)CC2)c1 (stereo unspecified)
AC50 [1]: 5.01 µM [falling, partial curve]

COc1ccc(NC(=O)CN2C(=O)COc3ccc(S(=O)(=O)N4CCOCC4)cc32)cc1
AC50 [1]: 2.51 µM [rising, partial curve]

COc1cccc(NC(=O)C2CCN(c3ccc(Sc4ccc(C)cc4)nn3)CC2)c1
AC50 [1]: 1 µM [falling, full curve]

Cc1nnc(SCC(=O)n2c3c(c4ccccc42)CCCC3)s1
AC50 [1]: 0.0398 µM [falling, full curve]

CCc1ccc2oc(-c3ccc(C)c(NC(=O)/C=C/c4ccco4)c3)nc2c1
AC50 [1]: 0.251 µM [falling, full curve]

Cc1sc2ncn(CC(=O)N3CCN(c4ccccc4F)CC3)c(=O)c2c1S(=O)(=O)N1CCC(C)CC1
AC50 [1]: 12.6 µM [falling, partial curve]

Cc1ccc2nc(/C(C#N)=C/c3ccccc3F)[nH]c2c1
AC50 [1]: 15.8 µM [falling, partial curve]
